Reference: the supplement of paper PMC10849652
The other results are listed elsewhere or left out.

Amino acid sequences for entries named in this document (tags omitted). A change or cut given only in a name is not applied to a line headed by its entry.
UniProt Q15061: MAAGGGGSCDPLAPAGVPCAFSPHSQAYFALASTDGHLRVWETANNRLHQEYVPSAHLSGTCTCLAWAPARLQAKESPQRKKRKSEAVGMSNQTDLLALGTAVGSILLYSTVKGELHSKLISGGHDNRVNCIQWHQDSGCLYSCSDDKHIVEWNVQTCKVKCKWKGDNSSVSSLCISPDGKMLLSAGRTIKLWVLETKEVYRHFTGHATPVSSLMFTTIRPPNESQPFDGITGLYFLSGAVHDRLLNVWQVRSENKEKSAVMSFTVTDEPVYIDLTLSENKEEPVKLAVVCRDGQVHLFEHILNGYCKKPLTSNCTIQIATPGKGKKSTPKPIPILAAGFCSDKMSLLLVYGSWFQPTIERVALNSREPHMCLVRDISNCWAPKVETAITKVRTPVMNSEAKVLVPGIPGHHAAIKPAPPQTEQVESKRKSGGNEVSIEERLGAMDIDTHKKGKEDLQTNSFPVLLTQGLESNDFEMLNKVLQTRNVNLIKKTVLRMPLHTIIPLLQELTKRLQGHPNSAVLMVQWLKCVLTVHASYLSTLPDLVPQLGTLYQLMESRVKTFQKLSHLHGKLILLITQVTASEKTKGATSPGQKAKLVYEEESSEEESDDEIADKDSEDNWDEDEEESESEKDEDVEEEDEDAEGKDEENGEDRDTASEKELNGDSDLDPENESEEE
UniProt Q86VN1: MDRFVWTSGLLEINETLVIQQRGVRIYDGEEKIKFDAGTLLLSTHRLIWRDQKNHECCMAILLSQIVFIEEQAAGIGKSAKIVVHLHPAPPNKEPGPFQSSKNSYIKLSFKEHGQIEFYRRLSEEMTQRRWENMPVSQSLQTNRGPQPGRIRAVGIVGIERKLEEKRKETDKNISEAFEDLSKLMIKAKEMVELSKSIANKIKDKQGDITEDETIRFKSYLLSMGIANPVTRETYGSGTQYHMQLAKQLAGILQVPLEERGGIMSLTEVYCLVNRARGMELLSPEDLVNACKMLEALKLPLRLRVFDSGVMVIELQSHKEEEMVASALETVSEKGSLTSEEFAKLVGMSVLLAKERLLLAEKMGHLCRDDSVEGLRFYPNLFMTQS
UniProt P49754: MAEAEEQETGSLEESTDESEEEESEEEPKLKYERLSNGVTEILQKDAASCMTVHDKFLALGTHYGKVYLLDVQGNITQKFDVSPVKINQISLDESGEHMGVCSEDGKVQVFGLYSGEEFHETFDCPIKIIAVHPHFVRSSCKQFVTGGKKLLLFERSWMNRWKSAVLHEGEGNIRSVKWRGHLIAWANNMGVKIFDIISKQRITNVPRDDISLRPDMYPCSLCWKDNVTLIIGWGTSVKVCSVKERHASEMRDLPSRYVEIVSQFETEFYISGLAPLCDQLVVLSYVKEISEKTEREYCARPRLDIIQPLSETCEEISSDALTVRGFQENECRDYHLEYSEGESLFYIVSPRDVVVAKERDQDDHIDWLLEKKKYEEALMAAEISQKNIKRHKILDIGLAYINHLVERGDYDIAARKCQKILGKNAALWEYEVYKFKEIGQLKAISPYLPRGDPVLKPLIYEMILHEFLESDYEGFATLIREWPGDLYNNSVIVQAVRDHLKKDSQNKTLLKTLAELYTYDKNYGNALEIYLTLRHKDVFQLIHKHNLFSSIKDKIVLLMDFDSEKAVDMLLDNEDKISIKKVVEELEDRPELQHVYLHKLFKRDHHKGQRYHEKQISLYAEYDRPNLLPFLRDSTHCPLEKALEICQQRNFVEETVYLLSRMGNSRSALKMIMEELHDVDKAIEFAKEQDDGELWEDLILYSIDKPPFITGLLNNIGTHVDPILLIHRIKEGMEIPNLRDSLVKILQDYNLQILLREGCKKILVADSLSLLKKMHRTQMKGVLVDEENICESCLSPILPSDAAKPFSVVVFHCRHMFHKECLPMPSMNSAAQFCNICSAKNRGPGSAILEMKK
UniProt O00401, whole entry, looked up: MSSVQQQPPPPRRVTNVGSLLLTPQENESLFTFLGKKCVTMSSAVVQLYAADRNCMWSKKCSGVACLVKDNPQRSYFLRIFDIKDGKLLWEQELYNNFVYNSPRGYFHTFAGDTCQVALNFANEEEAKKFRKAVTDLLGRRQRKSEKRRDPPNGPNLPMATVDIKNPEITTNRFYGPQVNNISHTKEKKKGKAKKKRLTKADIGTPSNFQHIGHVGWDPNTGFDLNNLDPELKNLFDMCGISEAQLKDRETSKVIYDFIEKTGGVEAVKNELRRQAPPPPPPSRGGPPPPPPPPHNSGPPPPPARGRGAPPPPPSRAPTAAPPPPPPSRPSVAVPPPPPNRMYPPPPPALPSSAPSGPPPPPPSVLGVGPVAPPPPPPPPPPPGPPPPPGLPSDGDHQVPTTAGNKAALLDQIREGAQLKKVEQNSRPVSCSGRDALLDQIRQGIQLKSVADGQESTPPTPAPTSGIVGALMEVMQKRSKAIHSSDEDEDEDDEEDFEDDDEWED
UniProt Q9H270: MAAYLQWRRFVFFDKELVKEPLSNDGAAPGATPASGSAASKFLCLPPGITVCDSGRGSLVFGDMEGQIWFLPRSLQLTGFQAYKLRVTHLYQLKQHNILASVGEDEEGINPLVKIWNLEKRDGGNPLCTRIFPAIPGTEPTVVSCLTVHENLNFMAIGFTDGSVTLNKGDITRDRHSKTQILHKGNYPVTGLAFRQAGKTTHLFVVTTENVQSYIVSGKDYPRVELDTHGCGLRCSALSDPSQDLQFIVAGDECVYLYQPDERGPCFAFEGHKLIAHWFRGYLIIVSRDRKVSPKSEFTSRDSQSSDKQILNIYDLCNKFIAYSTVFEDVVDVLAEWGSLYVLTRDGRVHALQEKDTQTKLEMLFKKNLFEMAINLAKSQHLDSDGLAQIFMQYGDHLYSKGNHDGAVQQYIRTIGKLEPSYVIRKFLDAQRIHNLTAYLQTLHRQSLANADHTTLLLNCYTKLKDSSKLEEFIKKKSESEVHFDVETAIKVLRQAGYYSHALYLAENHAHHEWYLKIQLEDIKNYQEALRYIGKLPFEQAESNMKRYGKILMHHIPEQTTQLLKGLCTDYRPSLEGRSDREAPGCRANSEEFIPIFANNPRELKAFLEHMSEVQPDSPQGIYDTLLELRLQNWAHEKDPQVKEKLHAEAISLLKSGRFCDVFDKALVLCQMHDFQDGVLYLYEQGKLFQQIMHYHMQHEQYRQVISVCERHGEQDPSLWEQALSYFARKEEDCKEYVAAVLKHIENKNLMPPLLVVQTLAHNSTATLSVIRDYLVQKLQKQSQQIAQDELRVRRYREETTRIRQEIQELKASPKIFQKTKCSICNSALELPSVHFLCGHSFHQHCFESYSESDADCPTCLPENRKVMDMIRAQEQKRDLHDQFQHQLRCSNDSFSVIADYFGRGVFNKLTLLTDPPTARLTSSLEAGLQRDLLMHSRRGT
UniProt Q9UEU0: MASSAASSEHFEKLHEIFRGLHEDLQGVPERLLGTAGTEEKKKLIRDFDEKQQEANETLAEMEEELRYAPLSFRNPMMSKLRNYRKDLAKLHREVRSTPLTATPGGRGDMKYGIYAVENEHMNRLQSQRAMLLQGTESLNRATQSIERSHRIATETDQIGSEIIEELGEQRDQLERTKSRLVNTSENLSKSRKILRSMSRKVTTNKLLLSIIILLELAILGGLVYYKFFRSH
UniProt Q96J92: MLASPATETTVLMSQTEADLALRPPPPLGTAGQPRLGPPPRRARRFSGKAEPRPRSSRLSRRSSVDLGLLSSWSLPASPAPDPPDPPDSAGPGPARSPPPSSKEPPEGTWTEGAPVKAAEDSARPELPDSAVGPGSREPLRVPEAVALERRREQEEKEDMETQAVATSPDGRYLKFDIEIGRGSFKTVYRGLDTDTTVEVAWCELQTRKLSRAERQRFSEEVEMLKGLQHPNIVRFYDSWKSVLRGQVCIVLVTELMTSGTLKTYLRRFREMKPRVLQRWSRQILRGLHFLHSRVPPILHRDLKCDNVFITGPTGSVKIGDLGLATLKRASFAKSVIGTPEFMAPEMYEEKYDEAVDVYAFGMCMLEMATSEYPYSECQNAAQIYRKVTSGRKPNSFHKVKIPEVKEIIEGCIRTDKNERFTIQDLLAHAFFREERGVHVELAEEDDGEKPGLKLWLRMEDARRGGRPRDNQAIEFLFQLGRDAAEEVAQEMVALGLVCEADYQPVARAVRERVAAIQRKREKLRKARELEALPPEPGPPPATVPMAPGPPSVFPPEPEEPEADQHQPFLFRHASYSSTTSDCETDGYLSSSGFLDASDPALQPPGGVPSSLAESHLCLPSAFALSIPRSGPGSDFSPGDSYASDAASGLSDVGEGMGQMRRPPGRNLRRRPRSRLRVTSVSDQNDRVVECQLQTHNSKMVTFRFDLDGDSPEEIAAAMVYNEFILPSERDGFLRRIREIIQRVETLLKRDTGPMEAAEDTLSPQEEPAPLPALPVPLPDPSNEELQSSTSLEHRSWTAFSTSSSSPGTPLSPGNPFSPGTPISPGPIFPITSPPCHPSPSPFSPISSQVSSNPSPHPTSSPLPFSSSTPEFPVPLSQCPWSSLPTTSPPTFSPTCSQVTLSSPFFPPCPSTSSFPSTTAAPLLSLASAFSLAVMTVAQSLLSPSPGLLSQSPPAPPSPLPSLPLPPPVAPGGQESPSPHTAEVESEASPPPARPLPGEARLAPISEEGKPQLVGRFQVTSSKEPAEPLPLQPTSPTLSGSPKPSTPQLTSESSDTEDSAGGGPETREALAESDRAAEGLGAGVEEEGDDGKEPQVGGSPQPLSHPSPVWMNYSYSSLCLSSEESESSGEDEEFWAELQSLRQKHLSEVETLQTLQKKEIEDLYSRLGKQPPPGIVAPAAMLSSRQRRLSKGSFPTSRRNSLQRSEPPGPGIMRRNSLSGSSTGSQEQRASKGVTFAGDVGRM
UniProt Q6AWC2, whole entry, looked up: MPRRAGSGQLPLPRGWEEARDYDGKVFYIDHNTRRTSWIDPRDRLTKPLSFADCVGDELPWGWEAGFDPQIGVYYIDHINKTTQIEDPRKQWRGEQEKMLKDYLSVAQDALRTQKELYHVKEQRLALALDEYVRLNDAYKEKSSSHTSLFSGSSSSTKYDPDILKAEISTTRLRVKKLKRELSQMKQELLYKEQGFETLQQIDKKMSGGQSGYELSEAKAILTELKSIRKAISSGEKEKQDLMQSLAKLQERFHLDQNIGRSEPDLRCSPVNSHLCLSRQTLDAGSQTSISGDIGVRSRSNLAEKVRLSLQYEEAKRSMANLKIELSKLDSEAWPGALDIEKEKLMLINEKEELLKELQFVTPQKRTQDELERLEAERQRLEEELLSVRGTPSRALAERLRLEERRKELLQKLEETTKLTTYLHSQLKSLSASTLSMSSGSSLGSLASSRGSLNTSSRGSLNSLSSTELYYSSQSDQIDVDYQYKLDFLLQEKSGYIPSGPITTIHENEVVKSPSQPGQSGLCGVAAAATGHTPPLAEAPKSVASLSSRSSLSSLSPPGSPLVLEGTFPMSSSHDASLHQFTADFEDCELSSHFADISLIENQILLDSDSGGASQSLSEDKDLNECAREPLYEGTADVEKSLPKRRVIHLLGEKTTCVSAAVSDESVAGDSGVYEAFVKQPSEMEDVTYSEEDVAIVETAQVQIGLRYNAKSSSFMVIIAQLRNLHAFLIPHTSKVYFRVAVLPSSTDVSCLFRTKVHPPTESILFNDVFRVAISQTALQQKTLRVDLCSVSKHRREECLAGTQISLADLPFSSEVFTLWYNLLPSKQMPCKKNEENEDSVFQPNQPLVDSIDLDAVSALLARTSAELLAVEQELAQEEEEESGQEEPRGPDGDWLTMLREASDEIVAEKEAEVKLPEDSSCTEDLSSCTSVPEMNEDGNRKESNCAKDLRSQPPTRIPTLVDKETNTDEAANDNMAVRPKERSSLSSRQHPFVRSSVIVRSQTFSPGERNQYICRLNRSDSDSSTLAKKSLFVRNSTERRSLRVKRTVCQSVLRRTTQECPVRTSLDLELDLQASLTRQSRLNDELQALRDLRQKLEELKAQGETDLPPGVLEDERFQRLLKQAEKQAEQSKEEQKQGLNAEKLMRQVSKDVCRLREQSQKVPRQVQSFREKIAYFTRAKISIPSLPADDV
UniProt Q8TF74: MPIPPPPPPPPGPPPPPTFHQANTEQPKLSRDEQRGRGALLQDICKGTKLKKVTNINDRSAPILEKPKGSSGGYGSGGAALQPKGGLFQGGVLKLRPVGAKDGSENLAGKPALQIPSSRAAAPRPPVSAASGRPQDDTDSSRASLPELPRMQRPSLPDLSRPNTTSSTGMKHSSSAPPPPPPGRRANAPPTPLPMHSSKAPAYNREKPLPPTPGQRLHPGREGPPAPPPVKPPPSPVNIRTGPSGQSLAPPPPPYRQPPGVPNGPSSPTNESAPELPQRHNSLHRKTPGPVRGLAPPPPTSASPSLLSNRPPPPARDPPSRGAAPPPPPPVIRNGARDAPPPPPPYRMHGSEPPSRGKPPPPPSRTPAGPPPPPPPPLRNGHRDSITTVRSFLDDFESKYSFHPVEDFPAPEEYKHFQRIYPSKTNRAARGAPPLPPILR
UniProt Q3ZAQ7: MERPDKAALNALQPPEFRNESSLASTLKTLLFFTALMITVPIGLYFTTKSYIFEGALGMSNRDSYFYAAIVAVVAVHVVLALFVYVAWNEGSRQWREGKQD

Experiments:
Test in all cases: log2 fold change, soluble protein after heating vs DMSO (PISA); higher = thermal stabilisation; K562 lysate, 10 uM; active = over 0.2 and 3.5 SD of the protein, either way, in both replicates (recomputed)
lapatinib = compound: CS(=O)(=O)CCNCc1ccc(-c2ccc3ncnc(Nc4ccc(OCc5cccc(F)c5)c(Cl)c4)c3c2)o1 [lapatinib]
In short: (§1)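 Dounce homogenisation of K562 pellets in PBS pH 7.4 with 1 mM MgCl2 produced a crude extract, used at 1 mg/mL protein. Exposure to 10 μM compound lasted 30 min, and aliquots were then heated for 3 min across 48°C-58°C, pooled and brought to 0.5% NP-40 at 4°C. The supernatant after 21,000xg for 90 min was quantified by TMTpro 16plex LC-MS/MS with channel sums equalised. Duplicate values are given as log-two fold change in thermal stability relative to solvent controls.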

pictilisib = compound: CS(=O)(=O)N1CCN(Cc2cc3nc(-c4cccc5[nH]ncc45)nc(N4CCOCC4)c3s2)CC1 [pictilisib]
In short: as §1

crizotinib = compound: C[C@@H](Oc1cc(-c2cnn(C3CCNCC3)c2)cnc1N)c1c(Cl)ccc(F)c1Cl [crizotinib]
In short: as §1

[1] = compound: C[C@H](C1=CC=C(C=C1)C(=O)NC2=C3C=CNC3=NC=C2)N
In short: as §1

duvelisib = compound: C[C@H](Nc1ncnc2nc[nH]c12)c1cc2cccc(Cl)c2c(=O)n1-c1ccccc1 [duvelisib]
In short: as §1

gandotinib = compound: Cc1cc(Nc2cc(CN3CCOCC3)c3nc(C)c(Cc4ccc(Cl)cc4F)n3n2)n[nH]1 [gandotinib]
In short: as §1

tozasertib = compound: Cc1cc(Nc2cc(N3CCN(C)CC3)nc(Sc3ccc(NC(=O)C4CC4)cc3)n2)n[nH]1 [tozasertib]
In short: as §1

doramapimod = compound: Cc1ccc(-n2nc(C(C)(C)C)cc2NC(=O)Nc2ccc(OCCN3CCOCC3)c3ccccc23)cc1 [doramapimod]
In short: as §1

bafetinib = compound: Cc1ccc(NC(=O)c2ccc(CN3CC[C@H](N(C)C)C3)c(C(F)(F)F)c2)cc1Nc1nccc(-c2cncnc2)n1 [bafetinib]
In short: as §1

[2] = compound: Cc1cccc(CC(=O)N2CCc3c2ccc(-c2cn(C)c4ncnc(N)c24)c3F)n1
In short: as §1

Measured: log2 fold change

WDR43 (UniProt Q15061)
inactive: lapatinib 0.022 | pictilisib 0.009 | crizotinib -0.012 | [1] -0.045 | duvelisib -0.033 | gandotinib 0.007 | tozasertib 0.017 | doramapimod 0.059 | bafetinib -0.023 | [2] 0.061

WDR61 (UniProt Q9GZS3)
inactive: lapatinib -0.01 | pictilisib -0.002 | crizotinib -0.041 | [1] 0.019 | duvelisib 0.048 | gandotinib 0.004 | tozasertib 0.001 | doramapimod 0.02 | bafetinib 0.054 | [2] -0.028

WARS1 (UniProt G3V456)
inactive: lapatinib 0.131

VKORC1L1, A0A3B3ISV4
inactive: lapatinib -0.013 | pictilisib -0.085 | crizotinib 0.043 | [1] -0.096 | duvelisib 0.015 | gandotinib -0.006 | tozasertib -0.051 | doramapimod -0.011 | bafetinib -0.014 | [2] 0.024

VPS36 (UniProt Q86VN1)
inactive: lapatinib 0.013 | pictilisib 0.026 | crizotinib 0 | [1] -0.105 | duvelisib 0.034 | gandotinib 0.011 | tozasertib 0.013 | doramapimod 0.072 | bafetinib -0.027 | [2] 0.082

VPS41 (UniProt P49754)
inactive: lapatinib -0.018 | pictilisib -0.046 | crizotinib -0.011 | [1] 0.079 | duvelisib -0.021 | gandotinib -0.093 | tozasertib 0.047 | doramapimod 0.023 | bafetinib -0.021 | [2] -0.05

WARS2 (UniProt Q9UGM6)
inactive: lapatinib 0.026 | pictilisib 0.054 | crizotinib -0.004 | [1] 0.012 | duvelisib -0.022 | gandotinib 0.052 | tozasertib -0.012 | doramapimod -0.038 | bafetinib -0.133 | [2] 0.016

WASL (UniProt O00401)
inactive: lapatinib -0.031 | pictilisib 0.021 | crizotinib -0.034 | [1] 0.093 | duvelisib 0.011 | gandotinib -0.04 | tozasertib 0.06 | doramapimod 0.051 | bafetinib 0.01 | [2] -0.08

WDR1 (UniProt O75083)
inactive: lapatinib -0.013 | pictilisib -0.016 | crizotinib 0.011 | [1] 0.08 | duvelisib -0.006 | gandotinib -0.065 | tozasertib -0.015 | doramapimod 0.007 | bafetinib 0.025 | [2] -0.096

WDR44 (UniProt Q5JSH3)
inactive: lapatinib -0.007 | pictilisib -0.015 | crizotinib -0.028 | [1] -0.049 | duvelisib 0.003 | gandotinib 0.058 | tozasertib -0.011 | doramapimod 0.026 | bafetinib -0.025 | [2] 0.013

WDR81 (UniProt Q562E7)
inactive: lapatinib -0.009 | pictilisib -0.11 | crizotinib -0.005 | [1] 0.019 | duvelisib -0.071 | gandotinib -0.05 | tozasertib -0.085 | doramapimod 0.022 | bafetinib -0.006 | [2] 0.043

VPS11 (UniProt Q9H270)
inactive: lapatinib -0.025 | pictilisib -0.027 | crizotinib -0.029 | [1] -0.008 | duvelisib -0.04 | gandotinib -0.083 | tozasertib 0.024 | doramapimod 0.039 | bafetinib -0.077 | [2] 0.065

WAC (UniProt Q9BTA9)
inactive: lapatinib 0.005 | pictilisib -0.04 | crizotinib 0.018 | [1] 0 | duvelisib -0.005 | gandotinib -0.014 | tozasertib 0.004 | doramapimod -0.031 | bafetinib -0.057 | [2] 0.043

VTI1B (UniProt Q9UEU0)
inactive: lapatinib 0.034 | pictilisib -0.017 | crizotinib 0.034 | [1] -0.04 | duvelisib -0.044 | gandotinib -0.003 | tozasertib -0.018 | doramapimod 0.041 | bafetinib -0.019 | [2] 0.037

WASF2 (UniProt Q9Y6W5)
inactive: lapatinib -0.005 | pictilisib -0.014 | crizotinib 0.036 | [1] -0.01 | duvelisib 0.013 | gandotinib -0.015 | tozasertib 0.032 | doramapimod -0.045 | bafetinib -0.015 | [2] 0.038

WDR3 (UniProt Q9UNX4)
inactive: lapatinib -0.012 | pictilisib -0.113 | crizotinib -0.003 | [1] -0.054 | duvelisib 0.008 | gandotinib -0.022 | tozasertib 0.003 | doramapimod 0.01 | bafetinib -0.083 | [2] 0.14

WAPL isoform 3 (UniProt Q7Z5K2)
inactive: lapatinib 0.001 | pictilisib -0.014 | crizotinib -0.068 | [1] -0.113 | duvelisib -0.003 | gandotinib 0.04 | tozasertib 0.006 | doramapimod 0.054 | bafetinib -0.029 | [2] 0.041

WNK4 (UniProt Q96J92)
inactive: lapatinib -0.063 | pictilisib -0.026 | crizotinib -0.076 | [1] 0.209 | duvelisib -0.007 | gandotinib -0.255 | tozasertib 0.006 | doramapimod 0.023 | bafetinib -0.024 | [2] -0.104

WASF1 (UniProt Q92558)
inactive: lapatinib 0.017 | pictilisib -0.007 | crizotinib -0.049 | [1] -0.099 | duvelisib 0.048 | gandotinib 0.019 | tozasertib 0.063 | doramapimod 0.028 | bafetinib -0.084 | [2] 0.08

WWP2 (UniProt O00308)
inactive: lapatinib -0.052 | pictilisib 0.044 | crizotinib -0.035 | [1] -0.093 | duvelisib -0.073 | gandotinib -0.001 | tozasertib -0.114 | doramapimod 0.075 | bafetinib 0.004 | [2] 0.084

WDR62 isoform 4 (UniProt O43379)
inactive: lapatinib -0.025 | pictilisib 0.028 | crizotinib -0.048 | [1] -0.021 | duvelisib 0.006 | gandotinib -0.032 | tozasertib 0.034 | doramapimod 0.038 | bafetinib -0.05 | [2] 0.08

WWC2 isoform 6 (UniProt Q6AWC2)
inactive: lapatinib -0.076 | pictilisib 0.052 | crizotinib -0.055 | [1] 0.054 | duvelisib 0.062 | gandotinib -0.071 | tozasertib 0.095 | doramapimod 0.073 | bafetinib -0.034 | [2] 0.045

VPS28 (UniProt Q9UK41)
inactive: lapatinib 0.038 | pictilisib -0.005 | crizotinib 0.051 | [1] -0.132 | duvelisib -0.032 | gandotinib 0.018 | tozasertib -0.03 | doramapimod -0.005 | bafetinib 0.034 | [2] 0.034

VPS13B (UniProt Q7Z7G8)
inactive: lapatinib -0.013 | pictilisib -0.004 | crizotinib 0.01 | [1] -0.042 | duvelisib 0.007 | gandotinib -0.037 | tozasertib -0.06 | doramapimod -0.075 | bafetinib -0.067 | [2] 0.109

VPS51 (UniProt Q9UID3)
inactive: lapatinib -0.034 | pictilisib -0.043 | crizotinib 0.019 | [1] 0.118 | duvelisib 0.016 | gandotinib -0.11 | tozasertib -0.009 | doramapimod -0.065 | bafetinib -0.095 | [2] -0.022

VPS29 isoform 2 (UniProt Q9UBQ0)
inactive: lapatinib 0.015 | pictilisib -0.06 | crizotinib 0.001 | [1] -0.007 | duvelisib -0.041 | gandotinib -0.025 | tozasertib -0.029 | doramapimod 0.005 | bafetinib 0.051 | [2] -0.011

WIPF2 (UniProt Q8TF74)
inactive: lapatinib -0.026 | pictilisib -0.009 | crizotinib -0.009 | [1] -0.088 | duvelisib 0.034 | gandotinib 0.029 | tozasertib -0.05 | doramapimod 0 | bafetinib -0.061 | [2] -0.007

VMA21 (UniProt Q3ZAQ7)
inactive: lapatinib 0.063 | pictilisib 0.079 | crizotinib -0.095 | [1] 0.171 | duvelisib -0.057 | gandotinib -0.061 | tozasertib -0.005 | doramapimod 0.098 | bafetinib 0.078 | [2] -0.049

VPS4B (UniProt O75351)
inactive: lapatinib 0.012 | pictilisib 0 | crizotinib 0.029 | [1] 0.045 | duvelisib -0.008 | gandotinib -0.095 | tozasertib 0.002 | doramapimod 0.02 | bafetinib 0.064 | [2] -0.061

VPS37A (UniProt Q8NEZ2)
inactive: lapatinib 0.017 | pictilisib -0.085 | crizotinib 0.007 | [1] 0.078 | duvelisib 0.04 | gandotinib -0.099 | tozasertib 0.053 | doramapimod 0.011 | bafetinib 0.063 | [2] 0.011

2 neighbouring entries from above, quoted:
VPS4B (UniProt O75351)
inactive: lapatinib 0.012 | pictilisib 0 | crizotinib 0.029 | [1] 0.045 | duvelisib -0.008 | gandotinib -0.095 | tozasertib 0.002 | doramapimod 0.02 | bafetinib 0.064 | [2] -0.061

VPS37A (UniProt Q8NEZ2)
inactive: lapatinib 0.017 | pictilisib -0.085 | crizotinib 0.007 | [1] 0.078 | duvelisib 0.04 | gandotinib -0.099 | tozasertib 0.053 | doramapimod 0.011 | bafetinib 0.063 | [2] 0.011
